No constants are given. Whether binding was seen depends on the method and setting. Binding seen in cells or lysates may run through a third protein. Some results given as binding are weak or reduced against the parent protein; the word gives no strength. For some of these results: Where a sequence is shown, tags or fusion partners need not be part of it.
Legend:
Assay in all cases: co-IP
[1] = molecular target: HA-tagged Gli2 (stable NIH/3T3 Flp-In cell line) (mouse) (UniProt Q0VGT2)
[2] = molecular target: HA-tagged Gli1 (mouse) (UniProt P47806)
[3] = molecular target: HA-tagged Gli2 (transiently expressed in HEK293T) (mouse) (UniProt Q0VGT2)

By UniProt entry, the sequences of proteins in these tests, tags left out.
UniProt Q0VGT2: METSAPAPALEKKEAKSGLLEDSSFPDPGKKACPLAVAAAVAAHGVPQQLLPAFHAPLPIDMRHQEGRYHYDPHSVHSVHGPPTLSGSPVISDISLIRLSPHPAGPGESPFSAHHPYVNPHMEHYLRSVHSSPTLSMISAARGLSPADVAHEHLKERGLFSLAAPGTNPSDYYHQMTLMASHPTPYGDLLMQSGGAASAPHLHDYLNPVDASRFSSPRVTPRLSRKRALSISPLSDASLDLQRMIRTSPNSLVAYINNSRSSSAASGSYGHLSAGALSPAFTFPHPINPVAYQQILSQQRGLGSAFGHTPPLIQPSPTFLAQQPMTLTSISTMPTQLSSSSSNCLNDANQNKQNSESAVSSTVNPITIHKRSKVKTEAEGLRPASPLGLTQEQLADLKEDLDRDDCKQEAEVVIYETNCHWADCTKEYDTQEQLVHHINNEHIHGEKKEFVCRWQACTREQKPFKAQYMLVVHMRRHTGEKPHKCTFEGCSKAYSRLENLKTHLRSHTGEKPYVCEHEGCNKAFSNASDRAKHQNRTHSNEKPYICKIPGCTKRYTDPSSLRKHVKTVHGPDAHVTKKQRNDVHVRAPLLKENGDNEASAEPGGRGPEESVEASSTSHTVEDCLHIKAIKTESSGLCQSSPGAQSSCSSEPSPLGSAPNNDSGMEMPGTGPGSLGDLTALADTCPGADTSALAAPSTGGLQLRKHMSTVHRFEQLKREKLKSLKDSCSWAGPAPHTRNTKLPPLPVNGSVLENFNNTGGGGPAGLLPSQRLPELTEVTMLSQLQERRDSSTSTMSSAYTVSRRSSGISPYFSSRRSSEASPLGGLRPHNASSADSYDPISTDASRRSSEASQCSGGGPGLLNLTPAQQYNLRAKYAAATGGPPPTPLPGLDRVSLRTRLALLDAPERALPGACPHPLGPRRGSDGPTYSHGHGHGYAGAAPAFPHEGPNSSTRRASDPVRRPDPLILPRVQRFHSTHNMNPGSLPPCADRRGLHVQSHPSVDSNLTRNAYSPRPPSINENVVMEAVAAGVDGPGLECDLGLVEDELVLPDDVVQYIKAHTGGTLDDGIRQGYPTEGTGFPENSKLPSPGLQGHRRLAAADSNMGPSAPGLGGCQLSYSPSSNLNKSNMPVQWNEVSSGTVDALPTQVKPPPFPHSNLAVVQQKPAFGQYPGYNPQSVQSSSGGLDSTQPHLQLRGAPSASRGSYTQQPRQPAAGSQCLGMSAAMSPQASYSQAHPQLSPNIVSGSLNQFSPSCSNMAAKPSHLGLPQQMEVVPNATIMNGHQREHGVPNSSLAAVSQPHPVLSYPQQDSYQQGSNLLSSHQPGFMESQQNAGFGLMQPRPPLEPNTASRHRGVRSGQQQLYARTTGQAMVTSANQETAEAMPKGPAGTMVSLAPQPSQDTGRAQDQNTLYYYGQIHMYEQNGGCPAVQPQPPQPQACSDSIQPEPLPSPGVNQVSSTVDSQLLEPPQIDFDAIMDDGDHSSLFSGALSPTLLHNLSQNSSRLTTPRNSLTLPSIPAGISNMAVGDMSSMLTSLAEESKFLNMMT
UniProt P47806: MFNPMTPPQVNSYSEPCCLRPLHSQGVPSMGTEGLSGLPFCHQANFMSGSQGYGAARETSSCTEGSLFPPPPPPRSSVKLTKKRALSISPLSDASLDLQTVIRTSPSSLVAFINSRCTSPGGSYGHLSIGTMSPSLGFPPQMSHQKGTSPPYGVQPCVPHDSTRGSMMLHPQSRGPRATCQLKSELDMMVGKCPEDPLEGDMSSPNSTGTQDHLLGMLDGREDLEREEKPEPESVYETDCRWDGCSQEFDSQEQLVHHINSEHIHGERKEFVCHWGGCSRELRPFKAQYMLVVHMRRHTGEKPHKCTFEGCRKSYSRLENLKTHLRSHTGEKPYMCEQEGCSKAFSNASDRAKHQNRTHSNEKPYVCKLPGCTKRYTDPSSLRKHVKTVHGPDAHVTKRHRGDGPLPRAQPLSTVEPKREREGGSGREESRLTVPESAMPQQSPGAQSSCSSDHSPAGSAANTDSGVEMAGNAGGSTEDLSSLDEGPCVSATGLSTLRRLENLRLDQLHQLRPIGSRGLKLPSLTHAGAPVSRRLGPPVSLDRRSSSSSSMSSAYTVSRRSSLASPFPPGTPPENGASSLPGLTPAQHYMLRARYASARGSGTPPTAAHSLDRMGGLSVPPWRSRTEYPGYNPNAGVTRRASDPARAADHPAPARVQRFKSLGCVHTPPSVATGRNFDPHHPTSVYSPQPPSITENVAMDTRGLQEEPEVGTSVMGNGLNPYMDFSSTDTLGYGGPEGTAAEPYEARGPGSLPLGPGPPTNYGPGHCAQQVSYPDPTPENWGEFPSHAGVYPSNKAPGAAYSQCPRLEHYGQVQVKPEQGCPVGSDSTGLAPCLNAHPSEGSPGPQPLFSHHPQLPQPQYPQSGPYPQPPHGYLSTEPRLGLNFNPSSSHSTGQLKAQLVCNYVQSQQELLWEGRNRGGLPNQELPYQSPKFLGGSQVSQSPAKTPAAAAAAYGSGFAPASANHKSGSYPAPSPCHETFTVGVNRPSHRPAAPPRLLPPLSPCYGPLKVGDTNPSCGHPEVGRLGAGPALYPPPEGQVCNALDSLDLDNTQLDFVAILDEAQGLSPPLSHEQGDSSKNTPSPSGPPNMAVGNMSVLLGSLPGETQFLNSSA

binding [1]	binding [2]	binding [3]	Binder
binds			endogenous Xpo7 (protein, UniProt Q9EPK7 1-1087) MADHVQSLAQLENLCKQLYETTDTTTRLQAEKALVEFTNSPDCLSKCQLLLERGSSSYSQLLAATCLTKLVSRTNNPLPLEQRIDIRNYVLNYLATRPKLATFVTQALIQLYARITKLGWFDCQKDDYVFRNAITDVTRFLQDSVEYCIIGVTILSQLTNEINQADTTHPLTKHRKIASSFRDSSLFDIFTLSCNLLKQASGKNLNLNDESQHGLLMQLLKLTHNCLNFDFIGTSTDESSDDLCTVQIPTSWRSAFLDSSTLQLFFDLYHSIPPSFSPLVLSCLVQIASVRRSLFNNAERAKFLSHLVDGVKRILENPQSLSDPNNYHEFCRLLARLKSNYQLGELVKVENYPDVIRLIANFTVTSLQHWEFAPNSVHYLLSLWQRLAASVPYVKATEPHMLETYTPEVTKAYITSRLESVHIILRDGLEDPLEDTGLVQQQLDQLSTIGRCEYEKTCALLVQLFDQSAQSYQELLQSASASPMDIAVQEGRLTWLVYIIGAVIGGRVSFASTDEQDAMDGELVCRVLQLMNLTDSRLAQAGNEKLELAMLSFFEQFRKIYIGDQVQKSSKLYRRLSEVLGLNDETMVLSVFIGKVITNLKYWGRCEPITSKTLQLLNDLSIGYSSVRKLVKLSAVQFMLNNHTSEHFSFLGINNQSNLTDMRCRTTFYTALGRLLMVDLGEDEDQYEQFMLPLTAAFEAVAQMFSTNSFNEQEAKRTLVGLVRDLRGIAFAFNAKTSFMMLFEWIYPSYMPILQRAIELWYHDPACTTPVLKLMAELVHNRSQRLQFDVSSPNGILLFRETSKMITMYGNRILTLGEVPKDQVYALKLKGISICFSMLKAALSGSYVNFGVFRLYGDDALENALQTFIKLLLSIPHSDLLDYPKLSQSYYSLLEVLTQDHMNFIASLEPHVIMYILSSISEGLTALDTMVCTGCCSCLDHIVTYLFKQLSRSTKKRTTPLNRESDCFLHIMQQHPAMIQQMLSTVLNIIIFEDCRNQWSMSRPLLGLILLNEKYFSDLRNSIVNSQPPEKQQAMHLCFENLMEGIERNLLTKNRDRFTQNLSAFRREVNDSMKNSTYGVNSNDMMS
	no binding	binds	Xpo7 (overexpressed in HEK293T) (protein, UniProt Q9EPK7 1-1087) MADHVQSLAQLENLCKQLYETTDTTTRLQAEKALVEFTNSPDCLSKCQLLLERGSSSYSQLLAATCLTKLVSRTNNPLPLEQRIDIRNYVLNYLATRPKLATFVTQALIQLYARITKLGWFDCQKDDYVFRNAITDVTRFLQDSVEYCIIGVTILSQLTNEINQADTTHPLTKHRKIASSFRDSSLFDIFTLSCNLLKQASGKNLNLNDESQHGLLMQLLKLTHNCLNFDFIGTSTDESSDDLCTVQIPTSWRSAFLDSSTLQLFFDLYHSIPPSFSPLVLSCLVQIASVRRSLFNNAERAKFLSHLVDGVKRILENPQSLSDPNNYHEFCRLLARLKSNYQLGELVKVENYPDVIRLIANFTVTSLQHWEFAPNSVHYLLSLWQRLAASVPYVKATEPHMLETYTPEVTKAYITSRLESVHIILRDGLEDPLEDTGLVQQQLDQLSTIGRCEYEKTCALLVQLFDQSAQSYQELLQSASASPMDIAVQEGRLTWLVYIIGAVIGGRVSFASTDEQDAMDGELVCRVLQLMNLTDSRLAQAGNEKLELAMLSFFEQFRKIYIGDQVQKSSKLYRRLSEVLGLNDETMVLSVFIGKVITNLKYWGRCEPITSKTLQLLNDLSIGYSSVRKLVKLSAVQFMLNNHTSEHFSFLGINNQSNLTDMRCRTTFYTALGRLLMVDLGEDEDQYEQFMLPLTAAFEAVAQMFSTNSFNEQEAKRTLVGLVRDLRGIAFAFNAKTSFMMLFEWIYPSYMPILQRAIELWYHDPACTTPVLKLMAELVHNRSQRLQFDVSSPNGILLFRETSKMITMYGNRILTLGEVPKDQVYALKLKGISICFSMLKAALSGSYVNFGVFRLYGDDALENALQTFIKLLLSIPHSDLLDYPKLSQSYYSLLEVLTQDHMNFIASLEPHVIMYILSSISEGLTALDTMVCTGCCSCLDHIVTYLFKQLSRSTKKRTTPLNRESDCFLHIMQQHPAMIQQMLSTVLNIIIFEDCRNQWSMSRPLLGLILLNEKYFSDLRNSIVNSQPPEKQQAMHLCFENLMEGIERNLLTKNRDRFTQNLSAFRREVNDSMKNSTYGVNSNDMMS
binds			Suppressor of Fused (SuFu), endogenous (protein, UniProt Q9Z0P7 1-484) MAELRPSVAPGPAAPPASGPSAPPAFASLFPPGLHAIYGECRRLYPDQPNPLQVTAIVKYWLGGPDPLDYVSMYRNMGSPSANIPEHWHYISFGLSDLYGDNRVHEFTGTDGPSGFGFELTFRLKRETGESAPPTWPAELMQGLARYVFQSENTFCSGDHVSWHSPLDNSESRIQHMLLTEDPQMQPVRTPFGVVTFLQIVGVCTEELHSAQQWNGQGILELLRTVPIAGGPWLITDMRRGETIFEIDPHLQERVDKGIETDGSNLSGVSAKCAWDDLSRPPEDEEDSRSICLGTQPRRLSGKDTEQIRETLRRGLEINSKPVLPPINSQRQNGLTHDRAPSRKDSLGSDSSTAIIPHELIRTRQLESVHLKFNQESGALIPLCLRGRLLHGRHFTYKSITGDMAITFVSTGVEGAFATEEHPYAAHGPWLQILLTEEFVEKMLEDLEDLTSPEEFKLPKEYSWPEKKLKVSILPDVVFDSPLH

From publication doi:10.1101/2020.01.31.928408
